This note sets out measurements from PMC12346198 (Cancers, 2025).

Common to all, as to assay type: cell-based
The subject of experiment [1] is SNU423. Kind of experiment: CCK-8 cytotoxicity assay, SNU423. The settings on record: Homo sapiens, SNU-423, 72 h treatment. As for the experimental part: (§1) The cytotoxicity of compounds was determined by the CCK-8 assay (Cell Counting Kit-8, CK04, Dojindo Molecular Technologies, Kumamoto, Japan). Cell lines were plated at 10,000 cells/well in 96-well plates and incubated overnight to allow for adherence (5% CO2, 37 °C). […] Cells were placed back in the incubator for 72 h treatment. CCK-8 reagent was added, and plates were further incubated 1–4 h as directed by the supplier’s instructions. Optical density was measured using a Biotek Synergy H1 plate reader at 450 nm. Primary hepatocytes were plated at 30,000 cells or 50,000 cells/well and maintained according to the technical information bulletin provided by the supplier. Upon treatment, maintenance media were supplemented with 10% FBS and fresh test compound for all subsequent media changes, as directed.

The subject of experiment [2] is SNU475. Kind of experiment: CCK-8 cytotoxicity assay, SNU475. To be noted: Homo sapiens, SNU-475, 72 h, 72 h treatment. On the procedure:
as §1

In experiment [3] the test system is HepG2. Kind of experiment: CCK-8 cytotoxicity assay, HepG2. The settings on record: Homo sapiens, HepG2, 72 h, 72 h treatment. As for the experimental part:
as §1

The test system of experiment [4] is THLE-2. Kind of experiment: CCK-8 cytotoxicity assay, THLE-2. The settings on record: Homo sapiens, 72 h treatment. On the procedure: as §1

In the case of `CNC(=O)c1ccc(N2C(=S)N(c3ccc(C#N)c(C(F)(F)F)c3)C(=O)C2(C)C)cc1F` [Enzalutamide, enzalutamide], the IC50 is 16.6 µM in experiment [1], 14.9 µM in experiment [2], more than 30 µM in experiment [3] and more than 30 µM in experiment [4].
